Laboratory results as given in paper PMC6075439.
These are yes or no findings as the source states them, for the method shown. For part of these data: Binding seen in cells or lysates may run through a third protein. Some results given as binding are weak or reduced against the parent protein; the word gives no strength. For part of these data: Where a sequence is shown, tags or fusion partners need not be part of it.

How the values were obtained:
[1] = molecular target: T1, endothelial nitric oxide synthase (human (endogenous in HUVECs)) (UniProt P29474); assay: co-IP; rabbit polyclonal anti-eNOS added to 300 ug HUVEC lysate overnight at 4 °C, protein A/G beads 4 h at 4 °C, washed 3 times with lysis buffer containing 150-500 mM NaCl, immunoblotting; cells with or without H2O2 (50 uM), Hemin or Ad-HO-1
T1 sequence: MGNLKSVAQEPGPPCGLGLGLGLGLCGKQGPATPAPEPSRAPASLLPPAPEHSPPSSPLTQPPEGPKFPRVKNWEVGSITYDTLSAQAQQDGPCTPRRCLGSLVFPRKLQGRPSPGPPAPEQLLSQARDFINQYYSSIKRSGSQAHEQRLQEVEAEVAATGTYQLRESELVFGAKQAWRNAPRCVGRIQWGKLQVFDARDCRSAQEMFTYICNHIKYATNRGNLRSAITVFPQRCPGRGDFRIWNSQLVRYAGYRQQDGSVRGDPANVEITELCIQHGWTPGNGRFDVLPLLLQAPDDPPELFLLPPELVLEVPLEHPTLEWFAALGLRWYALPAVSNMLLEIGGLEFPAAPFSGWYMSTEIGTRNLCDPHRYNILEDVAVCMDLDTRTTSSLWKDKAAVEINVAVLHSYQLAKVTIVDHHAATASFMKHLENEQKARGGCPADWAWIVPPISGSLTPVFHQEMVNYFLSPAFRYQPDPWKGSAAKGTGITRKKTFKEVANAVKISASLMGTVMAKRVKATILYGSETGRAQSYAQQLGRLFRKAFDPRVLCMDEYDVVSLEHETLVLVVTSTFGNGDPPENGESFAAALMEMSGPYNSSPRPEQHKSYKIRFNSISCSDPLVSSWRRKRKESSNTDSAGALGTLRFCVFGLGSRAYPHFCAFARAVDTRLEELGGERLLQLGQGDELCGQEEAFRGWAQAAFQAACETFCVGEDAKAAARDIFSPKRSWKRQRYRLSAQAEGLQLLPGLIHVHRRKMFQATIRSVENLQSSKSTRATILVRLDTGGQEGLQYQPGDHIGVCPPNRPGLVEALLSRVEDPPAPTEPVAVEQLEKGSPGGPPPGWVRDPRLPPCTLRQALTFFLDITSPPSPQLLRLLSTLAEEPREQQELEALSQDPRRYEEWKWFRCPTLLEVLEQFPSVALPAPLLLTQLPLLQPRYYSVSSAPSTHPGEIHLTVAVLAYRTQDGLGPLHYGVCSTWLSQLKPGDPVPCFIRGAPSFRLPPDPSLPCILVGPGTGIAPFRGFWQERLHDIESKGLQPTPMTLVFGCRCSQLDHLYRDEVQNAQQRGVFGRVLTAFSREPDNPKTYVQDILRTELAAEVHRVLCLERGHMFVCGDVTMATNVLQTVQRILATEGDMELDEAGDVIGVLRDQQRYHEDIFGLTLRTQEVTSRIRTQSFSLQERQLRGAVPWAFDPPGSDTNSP

[2] = molecular target: T2, endothelial nitric oxide synthase (human (endogenous in HUVECs)), P29474; assay: low-temperature SDS-PAGE; total proteins in loading buffer without 2-mercaptoethanol, 37 °C for 5 min, 8% SDS-PAGE for 4 h at 40 mA with the tank in an ice bath, eNOS dimers and monomers detected by blot; dimer to monomers; cells with or without H2O2, Hemin, Ad-HO-1 or HO-1 siRNA; details: remark: other sources report otherwise
T2 chain: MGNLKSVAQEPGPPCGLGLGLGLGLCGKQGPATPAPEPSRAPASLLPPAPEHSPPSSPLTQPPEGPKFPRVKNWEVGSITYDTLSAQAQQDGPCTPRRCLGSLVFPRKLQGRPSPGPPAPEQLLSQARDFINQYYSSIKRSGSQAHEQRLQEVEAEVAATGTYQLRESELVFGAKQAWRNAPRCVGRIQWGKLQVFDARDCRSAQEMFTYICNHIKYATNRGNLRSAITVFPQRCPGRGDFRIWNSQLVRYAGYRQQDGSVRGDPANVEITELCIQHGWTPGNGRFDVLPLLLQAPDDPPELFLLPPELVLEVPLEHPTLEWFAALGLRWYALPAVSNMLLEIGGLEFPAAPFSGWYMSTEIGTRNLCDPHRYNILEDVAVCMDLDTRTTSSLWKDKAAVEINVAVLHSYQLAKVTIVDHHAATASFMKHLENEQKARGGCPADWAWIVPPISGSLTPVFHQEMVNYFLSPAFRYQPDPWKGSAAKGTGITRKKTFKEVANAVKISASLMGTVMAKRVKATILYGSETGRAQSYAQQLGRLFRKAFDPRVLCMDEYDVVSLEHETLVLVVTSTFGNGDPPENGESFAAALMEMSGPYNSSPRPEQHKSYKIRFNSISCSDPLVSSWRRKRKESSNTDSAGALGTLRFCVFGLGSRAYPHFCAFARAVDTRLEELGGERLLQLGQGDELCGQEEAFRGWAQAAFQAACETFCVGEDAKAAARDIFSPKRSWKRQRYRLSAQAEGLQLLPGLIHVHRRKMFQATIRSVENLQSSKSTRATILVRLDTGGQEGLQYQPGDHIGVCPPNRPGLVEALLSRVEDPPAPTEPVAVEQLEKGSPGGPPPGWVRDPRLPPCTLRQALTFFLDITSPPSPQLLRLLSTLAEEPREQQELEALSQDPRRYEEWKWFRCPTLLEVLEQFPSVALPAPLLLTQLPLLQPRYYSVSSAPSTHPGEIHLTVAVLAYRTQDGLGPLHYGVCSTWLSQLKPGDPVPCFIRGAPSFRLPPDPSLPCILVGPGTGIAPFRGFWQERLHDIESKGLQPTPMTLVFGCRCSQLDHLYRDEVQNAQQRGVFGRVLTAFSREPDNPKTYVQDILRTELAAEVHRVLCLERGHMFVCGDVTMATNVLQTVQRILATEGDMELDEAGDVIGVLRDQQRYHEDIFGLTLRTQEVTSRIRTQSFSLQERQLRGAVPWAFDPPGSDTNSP

B1: heme oxygenase-1 (enzyme, UniProt P09601 1-288)
chain: MERPQPDSMPQDLSEALKEATKEVHTQAENAEFMRNFQKGQVTRDGFKLVMASLYHIYVALEEEIERNKESPVFAPVYFPEELHRKAALEQDLAFWYGPRWQEVIPYTPAMQRYVKRLHEVGRTEPELLVAHAYTRYLGDLSGGQVLKKIAQKALDLPSSGEGLAFFTFPNIASATKFKQLYRSRMNSLEMTPAVRQRVIEEAKTAFLLNIQLFEELQELLTHDTKDQSPSRAPGLRQRASNKVQDSAPVETPRGKPPLNTRSQAPLLRWVLTLSFLVATVAVGLYAM
B1 was tested, and the binding [1] was “binds”.

B2: GFP-HO-1 (HO-1 from the recombinant adenovirus encoding human HO-1 with a GFP) (enzyme, UniProt P09601 1-288)
chain: MERPQPDSMPQDLSEALKEATKEVHTQAENAEFMRNFQKGQVTRDGFKLVMASLYHIYVALEEEIERNKESPVFAPVYFPEELHRKAALEQDLAFWYGPRWQEVIPYTPAMQRYVKRLHEVGRTEPELLVAHAYTRYLGDLSGGQVLKKIAQKALDLPSSGEGLAFFTFPNIASATKFKQLYRSRMNSLEMTPAVRQRVIEEAKTAFLLNIQLFEELQELLTHDTKDQSPSRAPGLRQRASNKVQDSAPVETPRGKPPLNTRSQAPLLRWVLTLSFLVATVAVGLYAM
For B2, the binding [1] was “binds”.

B3: endothelial nitric oxide synthase, P29474 1-1203 (enzyme)
chain: MGNLKSVAQEPGPPCGLGLGLGLGLCGKQGPATPAPEPSRAPASLLPPAPEHSPPSSPLTQPPEGPKFPRVKNWEVGSITYDTLSAQAQQDGPCTPRRCLGSLVFPRKLQGRPSPGPPAPEQLLSQARDFINQYYSSIKRSGSQAHEQRLQEVEAEVAATGTYQLRESELVFGAKQAWRNAPRCVGRIQWGKLQVFDARDCRSAQEMFTYICNHIKYATNRGNLRSAITVFPQRCPGRGDFRIWNSQLVRYAGYRQQDGSVRGDPANVEITELCIQHGWTPGNGRFDVLPLLLQAPDDPPELFLLPPELVLEVPLEHPTLEWFAALGLRWYALPAVSNMLLEIGGLEFPAAPFSGWYMSTEIGTRNLCDPHRYNILEDVAVCMDLDTRTTSSLWKDKAAVEINVAVLHSYQLAKVTIVDHHAATASFMKHLENEQKARGGCPADWAWIVPPISGSLTPVFHQEMVNYFLSPAFRYQPDPWKGSAAKGTGITRKKTFKEVANAVKISASLMGTVMAKRVKATILYGSETGRAQSYAQQLGRLFRKAFDPRVLCMDEYDVVSLEHETLVLVVTSTFGNGDPPENGESFAAALMEMSGPYNSSPRPEQHKSYKIRFNSISCSDPLVSSWRRKRKESSNTDSAGALGTLRFCVFGLGSRAYPHFCAFARAVDTRLEELGGERLLQLGQGDELCGQEEAFRGWAQAAFQAACETFCVGEDAKAAARDIFSPKRSWKRQRYRLSAQAEGLQLLPGLIHVHRRKMFQATIRSVENLQSSKSTRATILVRLDTGGQEGLQYQPGDHIGVCPPNRPGLVEALLSRVEDPPAPTEPVAVEQLEKGSPGGPPPGWVRDPRLPPCTLRQALTFFLDITSPPSPQLLRLLSTLAEEPREQQELEALSQDPRRYEEWKWFRCPTLLEVLEQFPSVALPAPLLLTQLPLLQPRYYSVSSAPSTHPGEIHLTVAVLAYRTQDGLGPLHYGVCSTWLSQLKPGDPVPCFIRGAPSFRLPPDPSLPCILVGPGTGIAPFRGFWQERLHDIESKGLQPTPMTLVFGCRCSQLDHLYRDEVQNAQQRGVFGRVLTAFSREPDNPKTYVQDILRTELAAEVHRVLCLERGHMFVCGDVTMATNVLQTVQRILATEGDMELDEAGDVIGVLRDQQRYHEDIFGLTLRTQEVTSRIRTQSFSLQERQLRGAVPWAFDPPGSDTNSP
In the case of B3, the binding [2] is reported as “binds”.
